# Source: PubChem BioAssay AID1259254 (NCATS, 2017)
# Test: 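Finding genes that stop cells copying their DNA twice in one cycle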 (primary screen)
# Cell system: human HCT116 colorectal cancer cells
# Reagent: single siRNA against human genes
# Time to read-out: 3 days
# Measurement: 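Imaged Hoechst DNA stain sorts each cell into a cycle phase by DNA amount; per plate, G2 fraction set to 0% for non-targeting and 100% for GMNN siRNA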
# Scale: G2 robust z-score and G2 cells, % of GMNN control: higher = more G2 cells, more excess DNA replication; raw share of cells in G2: higher = larger share of cells with G2 DNA content
# Active means: 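An siRNA counts as active if its G2 robust z-score lies at least 5 MADs above the screen median; here such calls match roughly 38% of GMNN control or more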
# Shown is an unselected part of about 59,000 reagents. Of all reagents, about 1,550 (2.6%) are marked active. 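G2 share is only a proxy for re-replication; each gene was hit by three separate siRNAs, and active genes were retested.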 Raw values vary from plate to plate and are shown uncorrected. The numbers tell different reagents against one gene apart. Not given: the amount of reagent.
gene symbol,siRNA no.,G2 robust z-score,"G2 cells, % of GMNN control",raw share of cells in G2 (%),Outcome
VPS33A (VPS33A core subunit of CORVET and HOPS complexes),1,2.06,17.4,12.2,inactive
VPS33A (VPS33A core subunit of CORVET and HOPS complexes),2,0.659,7.61,8.02,inactive
VPS33A (VPS33A core subunit of CORVET and HOPS complexes),3,-0.631,-1.47,2.31,inactive
ZNF18 (zinc finger protein 18),1,-0.217,1.44,4.01,inactive
ZNF18 (zinc finger protein 18),2,-0.306,0.812,6.35,inactive
ZNF18 (zinc finger protein 18),3,0.0398,3.25,4.7,inactive
CHMP2B (charged multivesicular body protein 2B),1,-0.208,1.5,4.98,inactive
CHMP2B (charged multivesicular body protein 2B),2,-0.0352,2.72,5.12,inactive
CHMP2B (charged multivesicular body protein 2B),3,-0.0611,2.54,4.19,inactive
TENM3 (teneurin transmembrane protein 3),1,0.262,4.81,6.37,inactive
TENM3 (teneurin transmembrane protein 3),2,-0.348,0.516,4.35,inactive
TENM3 (teneurin transmembrane protein 3),3,3.82,29.8,12.6,inactive
IQGAP3 (IQ motif containing GTPase activating protein 3),1,1.49,13.4,9.56,inactive
IQGAP3 (IQ motif containing GTPase activating protein 3),2,-0.592,-1.2,5.12,inactive
IQGAP3 (IQ motif containing GTPase activating protein 3),3,-0.512,-0.633,4.69,inactive
MSGN1 (mesogenin 1),1,-0.397,0.178,3.34,inactive
MSGN1 (mesogenin 1),2,-0.434,-0.0872,4.15,inactive
MSGN1 (mesogenin 1),3,-0.13,2.05,4.69,inactive
FCN1 (ficolin 1),1,-0.53,-0.759,3.16,inactive
FCN1 (ficolin 1),2,-0.463,-0.291,4.71,inactive
FCN1 (ficolin 1),3,-0.783,-2.54,2.19,inactive
RPL21P7 (ribosomal protein L21 pseudogene 7),1,1.52,13.7,8.31,inactive
RPL21P7 (ribosomal protein L21 pseudogene 7),2,0.977,9.84,6.17,inactive
RPL21P7 (ribosomal protein L21 pseudogene 7),3,0.32,5.22,5.75,inactive
ARSG (arylsulfatase G),1,0.549,6.83,9.11,inactive
ARSG (arylsulfatase G),2,3.96,30.8,14.5,inactive
ARSG (arylsulfatase G),3,1.54,13.8,8.59,inactive
SWSAP1 (SWIM-type zinc finger 7 associated protein 1),1,-0.533,-0.785,2.29,inactive
SWSAP1 (SWIM-type zinc finger 7 associated protein 1),2,2.07,17.5,10.8,inactive
SWSAP1 (SWIM-type zinc finger 7 associated protein 1),3,-0.476,-0.381,2.98,inactive
ADAMTS19 (ADAM metallopeptidase with thrombospondin type 1 motif 19),1,1.61,14.3,11.6,inactive
ADAMTS19 (ADAM metallopeptidase with thrombospondin type 1 motif 19),2,-0.381,0.285,4.57,inactive
ADAMTS19 (ADAM metallopeptidase with thrombospondin type 1 motif 19),3,-1.03,-4.31,2.66,inactive
OSM (oncostatin M),1,0.0465,3.29,6.37,inactive
OSM (oncostatin M),2,1.51,13.6,9.58,inactive
OSM (oncostatin M),3,3.76,29.5,14,inactive
TENT4B (terminal nucleotidyltransferase 4B),1,-0.456,-0.243,4.26,inactive
TENT4B (terminal nucleotidyltransferase 4B),2,0.723,8.05,7.15,inactive
TENT4B (terminal nucleotidyltransferase 4B),3,1.06,10.4,9.95,inactive
FAM174B (family with sequence similarity 174 member B),1,0.162,4.11,6.5,inactive
FAM174B (family with sequence similarity 174 member B),2,-0.934,-3.6,2.5,inactive
FAM174B (family with sequence similarity 174 member B),3,-0.862,-3.1,2.29,inactive
GLI2 (GLI family zinc finger 2),1,-0.751,-2.32,2.54,inactive
GLI2 (GLI family zinc finger 2),2,1.67,14.7,11.7,inactive
GLI2 (GLI family zinc finger 2),3,-0.286,0.952,3.45,inactive
NLRP12 (NLR family pyrin domain containing 12),1,3.17,25.3,14.8,inactive
NLRP12 (NLR family pyrin domain containing 12),2,0.311,5.15,4.62,inactive
NLRP12 (NLR family pyrin domain containing 12),3,2.16,18.2,8.68,inactive
APOC4 (apolipoprotein C4),1,4.4,33.9,21.2,inactive
APOC4 (apolipoprotein C4),2,-0.38,0.293,4.19,inactive
APOC4 (apolipoprotein C4),3,-0.268,1.08,3.95,inactive
TNC (tenascin C),1,-0.81,-2.73,4.05,inactive
TNC (tenascin C),2,2.24,18.7,12.8,inactive
TNC (tenascin C),3,-0.39,0.223,4.28,inactive
CD96 (CD96 molecule),1,-1.11,-4.81,1.93,inactive
CD96 (CD96 molecule),2,1.12,10.9,10.8,inactive
CD96 (CD96 molecule),3,-0.441,-0.132,3.28,inactive
COPZ1 (coat protein complex I subunit zeta 1),1,0.465,6.24,8.87,inactive
COPZ1 (coat protein complex I subunit zeta 1),2,2.19,18.3,10.3,inactive
COPZ1 (coat protein complex I subunit zeta 1),3,1.3,12.1,8.01,inactive
OR52W1 (olfactory receptor family 52 subfamily W member 1),1,-0.962,-3.8,0.708,inactive
OR52W1 (olfactory receptor family 52 subfamily W member 1),2,-0.676,-1.79,3.38,inactive
OR52W1 (olfactory receptor family 52 subfamily W member 1),3,-0.838,-2.93,2.46,inactive
CSPP1 (centrosome and spindle pole associated protein 1),1,0.0724,3.48,5.89,inactive
CSPP1 (centrosome and spindle pole associated protein 1),2,-0.128,2.07,5.21,inactive
CSPP1 (centrosome and spindle pole associated protein 1),3,-0.0235,2.8,3.14,inactive
ELAC1 (elaC ribonuclease Z 1),1,-1.61,-8.37,2.76,inactive
ELAC1 (elaC ribonuclease Z 1),2,-0.802,-2.67,3.48,inactive
ELAC1 (elaC ribonuclease Z 1),3,-0.567,-1.02,3.91,inactive

Only “raw share of cells in G2 (%)” (9 entries from above):
RPL21P7 (ribosomal protein L21 pseudogene 7) #2: 6.17
RPL21P7 (ribosomal protein L21 pseudogene 7) #3: 5.75
ARSG (arylsulfatase G) #1: 9.11
ARSG (arylsulfatase G) #2: 14.5
ARSG (arylsulfatase G) #3: 8.59
SWSAP1 (SWIM-type zinc finger 7 associated protein 1) #1: 2.29
SWSAP1 (SWIM-type zinc finger 7 associated protein 1) #2: 10.8
SWSAP1 (SWIM-type zinc finger 7 associated protein 1) #3: 2.98
ADAMTS19 (ADAM metallopeptidase with thrombospondin type 1 motif 19) #1: 11.6
